Data as given in publication PMC10616141.
Results are given in words; binding and its absence hold for the method and conditions named. Binding seen in cells or lysates may run through a third protein. Some entries that bind do so weakly or less than the wild type.

Protein sequences, listed by entry. Tags and fused reporters are not part of them.
UniProt Q96D31: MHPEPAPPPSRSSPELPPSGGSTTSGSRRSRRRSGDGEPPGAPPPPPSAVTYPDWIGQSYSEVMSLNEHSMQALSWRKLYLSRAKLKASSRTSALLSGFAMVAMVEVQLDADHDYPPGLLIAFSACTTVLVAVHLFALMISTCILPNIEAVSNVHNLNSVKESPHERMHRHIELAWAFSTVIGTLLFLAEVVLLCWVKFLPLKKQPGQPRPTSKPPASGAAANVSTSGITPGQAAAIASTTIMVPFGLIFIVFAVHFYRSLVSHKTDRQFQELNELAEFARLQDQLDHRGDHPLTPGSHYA

Biological target: Orai1-CFP (UniProt Q96D31)
Assay: FRET or BRET; E-FRET between C-terminally tagged Orai1-CFP and Orai1-YFP co-expressed with mCherry-STIM1 (WT or mutants) in HEK-S1S2dKO cells, before and after 2.5 µM ionomycin; values normalised to t0

binding: binds
Substance: Orai1-YFP (from UniProt Q96D31 1-301)
